Source: the supplement of paper PMC7238544
Structures can show the parent of a compound that is named as a salt. ± gives the standard deviation of the averaged measurements. Some of the results follow. The data scatter; read single values as rough.

Key:
[1] = tested on: hAMSC donor 1; test: Hoechst total cell count ratio vs vehicle control; higher = more cells (less toxicity)
[2] = tested on: hAMSC donor 2; test: as above
[3] = tested on: hAMSC donor 1; test: transgenic luciferase activity (RLU/mg protein) fold change vs vehicle control (ratio); higher = more transgene expression
[4] = tested on: hAMSC donor 2; test: as above
[5] = tested on: hAMSC donor 1; test: transfection efficiency (EGFP+ cells / Hoechst count) fold change vs vehicle control (ratio); hAMSC are human adipose-derived mesenchymal stem cells given an EGFP-luciferase plasmid by lipofection; higher = enhanced transfection
[6] = tested on: hAMSC donor 2; test: as above
[7] = priming compound concentration 0.2 µM
[8] = priming compound concentration 1.7 µM
[9] = priming compound concentration 13 µM

| SMILES | Hoechst total cell count ratio [1, 7] | Hoechst total cell count ratio [1, 8] | Hoechst total cell count ratio [1, 9] | Hoechst total cell count ratio [2, 7] | Hoechst total cell count ratio [2, 8] | Hoechst total cell count ratio [2, 9] | transgenic luciferase activity [3, 7] | transgenic luciferase activity [3, 8] | transgenic luciferase activity [4, 7] | transgenic luciferase activity [4, 8] | transgenic luciferase activity [4, 9] | transfection efficiency [5, 7] | transfection efficiency [5, 8] | transfection efficiency [5, 9] | transfection efficiency [6, 7] | transfection efficiency [6, 8] | transfection efficiency [6, 9] | transgenic luciferase activity [3, 9] |
| --- | --- | --- | --- | --- | --- | --- | --- | --- | --- | --- | --- | --- | --- | --- | --- | --- | --- | --- |
| Cc1cccc(CN2CCN(C(c3ccccc3)c3ccc(Cl)cc3)CC2)c1 (stereo unspecified) [Meclizine hydrochloride] | 1.59 ± 0.075 | 1.22 ± 0.091 | 1.34 ± 0.12 | 1.16 ± 0.055 | 1.12 ± 0.072 | 1.39 ± 0.79 | 0.792 ± 0.21 | 1.42 ± 1 | 0.905 ± 0.18 | 0.669 ± 0.1 | 0.861 ± 0.08 | 0.755 ± 0.093 | 0.821 ± 0.23 | 0.875 ± 0.21 | 1.21 ± 0.12 | 1.28 ± 0.057 | 1.18 ± 0.29 |  |
| CCCNCC(O)COc1ccccc1C(=O)CCc1ccccc1 (stereo unspecified) [Propafenone] | 1.2 ± 0.15 | 1.08 ± 0.11 | 1.22 ± 0.21 | 1.15 ± 0.2 | 1.15 ± 0.055 | 1.39 ± 0.055 |  | 1.01 ± 0.43 | 0.487 ± 0.14 | 0.878 ± 0.23 | 0.58 ± 0.0091 | 1.26 ± 0.21 | 1.52 ± 0.16 | 1.16 ± 0.26 | 0.946 ± 0.23 | 1.06 ± 0.066 | 0.845 ± 0.093 | 0.248 ± 0.072 |
| COc1cc(C[C@@H](CO)[C@H](CO)Cc2ccc(O)c(OC)c2)ccc1O [Secoisolariciresinol] | 1.43 ± 0.018 | 1.1 ± 0.099 | 1.34 ± 0.098 | 1.05 ± 0.066 | 1.4 ± 0.056 | 0.873 ± 0.16 | 0.61 ± 0.051 | 1.18 ± 0.86 | 0.773 ± 0.23 | 0.687 ± 0.035 | 1.05 ± 0.28 | 1.15 ± 0.24 | 1.02 ± 0.06 | 1.05 ± 0.16 | 0.946 ± 0.075 | 0.871 ± 0.13 | 1.24 ± 0.24 |  |
| Nc1nc(N)c2nc(-c3ccccc3)c(N)nc2n1 [Triamterene] | 1.08 ± 0.088 | 1.26 ± 0.071 | 1.1 ± 0.15 | 1.2 ± 0.15 | 1.04 ± 0.19 | 1.25 ± 0.16 | 0.823 ± 0.034 | 1.56 ± 1.3 | 0.908 ± 0.28 | 0.995 ± 0.043 | 0.844 ± 0.26 | 1.48 ± 0.38 | 1.15 ± 0.24 | 0.927 ± 0.43 | 0.836 ± 0.028 | 1.17 ± 0.17 | 1.05 ± 0.24 |  |
| CCCNC(=O)NS(=O)(=O)c1ccc(Cl)cc1 [Chlorpropamide] | 1.12 ± 0.049 | 1.03 ± 0.18 | 1.32 ± 0.19 | 1.12 ± 0.061 | 1.26 ± 0.054 | 1.47 ± 0.22 | 0.645 ± 0.095 | 0.608 ± 0.46 | 0.929 ± 0.13 | 0.919 ± 0.025 | 0.478 ± 0.092 | 1.27 ± 0.35 | 2.04 ± 0.27 | 0.939 ± 0.35 | 1.21 ± 0.16 | 1.18 ± 0.085 | 0.91 ± 0.13 |  |
| O=C(O)c1cccnc1 [Nicotinic acid] | 1.17 ± 0.047 | 1.06 ± 0.15 | 1.45 ± 0.068 | 1.16 ± 0.24 | 1.23 ± 0.26 | 1.42 ± 0.072 | 0.761 ± 0.38 | 1.03 ± 0.37 | 0.742 ± 0.15 | 0.887 ± 0.13 | 0.539 ± 0.098 | 1.26 ± 0.092 | 1.85 ± 0.081 | 0.977 ± 0.29 | 0.921 ± 0.17 | 1.08 ± 0.25 | 0.942 ± 0.26 |  |
| C#C[C@]1(O)CC[C@H]2[C@@H]3CCC4=CC(=O)CC[C@@H]4[C@H]3CC[C@@]21CC [Levonorgestrel] | 0.998 ± 0.08 | 1.04 ± 0.034 | 1.23 ± 0.07 | 0.99 ± 0.19 | 1.03 ± 0.031 | 1.16 ± 0.096 | 0.681 ± 0.27 | 0.692 ± 0.11 | 1.05 ± 0.12 | 0.874 ± 0.086 | 0.744 ± 0.19 | 1.34 ± 0.44 | 1.17 ± 0.19 | 0.802 ± 0.23 | 1.23 ± 0.34 | 1.14 ± 0.12 | 1.25 ± 0.5 |  |
| C[n+]1ccccc1/C=N/O [Pralidoxime chloride] | 0.895 ± 0.031 | 0.926 ± 0.07 | 1.04 ± 0.18 | 1.1 ± 0.1 | 1.13 ± 0.16 | 1.18 ± 0.022 |  | 0.357 ± 0.045 | 0.733 ± 0.092 | 0.964 ± 0.094 | 0.651 ± 0.12 | 0.655 ± 0.32 | 1.47 ± 0.31 | 0.801 ± 0.32 | 0.769 ± 0.068 | 1.29 ± 0.074 | 0.951 ± 0.11 | 1.01 ± 0.47 |
| COc1cc(C)c(Cc2cnc(N)nc2N)cc1OC [Ormetoprim] | 1.07 ± 0.066 | 1.27 ± 0.038 | 0.876 ± 0.066 | 0.807 ± 0.14 | 1.27 ± 0.045 | 1.41 ± 0.11 | 0.821 ± 0.32 | 0.914 ± 0.28 | 0.803 ± 0.17 | 0.98 ± 0.12 | 0.703 ± 0.16 | 1.58 ± 0.46 | 1.23 ± 1 | 1.19 ± 0.26 | 1.26 ± 0.17 | 0.936 ± 0.015 | 1.03 ± 0.077 |  |
| NCc1ccc(S(N)(=O)=O)cc1 [Mafenide acetate] | 1.48 ± 0.048 | 1.23 ± 0.093 | 1.39 ± 0.25 | 1.13 ± 0.055 | 1.2 ± 0.027 | 1.23 ± 0.11 |  | 1.18 ± 0.47 | 0.681 ± 0.45 | 0.593 ± 0.064 | 0.656 ± 0.035 | 0.614 ± 0.18 | 0.983 ± 0.077 | 0.785 ± 0.059 | 0.948 ± 0.051 | 0.904 ± 0.048 | 1.08 ± 0.34 | 0.414 ± 0.35 |
| CCOC(=O)CCC(=O)O[C@H]1[C@H](O[C@@H]2[C@@H](C)[C@H](O[C@H]3C[C@@](C)(OC)[C@@H](O)[C@H](C)O3)[C@@H](C)C(=O)O[C@H](CC)[C@@](C)(O)[C@H](O)[C@@H](C)C(=O)[C@H](C)C[C@@]2(C)O)O[C@H](C)C[C@@H]1N(C)C [Eryped] | 1.42 ± 0.092 | 1.102 ± 0.006 | 1.46 ± 0.19 | 1.15 ± 0.027 | 1.231 ± 0.0047 | 1.27 ± 0.25 |  | 1.05 ± 0.3 | 0.91 ± 0.18 | 0.593 ± 0.049 | 0.538 ± 0.12 | 0.833 ± 0.14 | 1.26 ± 0.087 | 0.957 ± 0.18 | 0.881 ± 0.12 | 0.96 ± 0.2 | 0.735 ± 0.075 | 0.513 ± 0.16 |
| O=c1[nH]c(=O)n(C2CCCO2)cc1F (stereo unspecified) [Tegafur] | 1.44 ± 0.2 | 1.187 ± 0.0065 | 1.04 ± 0.17 | 1.27 ± 0.072 | 1.423 ± 0.0054 | 1.1 ± 0.14 |  | 0.624 ± 0.25 | 0.437 ± 0.19 | 0.728 ± 0.04 | 0.724 ± 0.27 | 0.929 ± 0.23 | 0.939 ± 0.26 | 1.11 ± 0.065 | 0.895 ± 0.12 | 0.936 ± 0.036 | 1.23 ± 0.1 | 0.541 ± 0.23 |
| O=c1cnn([C@@H]2O[C@H](CO)[C@@H](O)[C@H]2O)c(=O)[nH]1 [6-Azauridine] | 1.09 ± 0.11 | 1.25 ± 0.14 | 0.927 ± 0.13 | 1.21 ± 0.17 | 1.09 ± 0.082 | 1.33 ± 0.15 | 0.533 ± 0.082 | 0.724 ± 0.31 | 0.766 ± 0.15 | 0.944 ± 0.17 | 0.819 ± 0.24 | 1.48 ± 0.87 | 2.11 ± 0.76 | 1.33 ± 0.59 | 1 ± 0.21 | 1.2 ± 0.081 | 1.08 ± 0.13 |  |

Part of the list above, tab-delimited:
SMILES	Hoechst total cell count ratio [1, 7]	Hoechst total cell count ratio [1, 8]	Hoechst total cell count ratio [1, 9]	Hoechst total cell count ratio [2, 7]	Hoechst total cell count ratio [2, 8]	Hoechst total cell count ratio [2, 9]	transgenic luciferase activity [3, 7]	transgenic luciferase activity [3, 8]	transgenic luciferase activity [4, 7]	transgenic luciferase activity [4, 8]	transgenic luciferase activity [4, 9]	transfection efficiency [5, 7]	transfection efficiency [5, 8]	transfection efficiency [5, 9]	transfection efficiency [6, 7]	transfection efficiency [6, 8]	transfection efficiency [6, 9]	transgenic luciferase activity [3, 9]
COc1cc(C)c(Cc2cnc(N)nc2N)cc1OC [Ormetoprim]	1.07 ± 0.066	1.27 ± 0.038	0.876 ± 0.066	0.807 ± 0.14	1.27 ± 0.045	1.41 ± 0.11	0.821 ± 0.32	0.914 ± 0.28	0.803 ± 0.17	0.98 ± 0.12	0.703 ± 0.16	1.58 ± 0.46	1.23 ± 1	1.19 ± 0.26	1.26 ± 0.17	0.936 ± 0.015	1.03 ± 0.077	
CCOC(=O)CCC(=O)O[C@H]1[C@H](O[C@@H]2[C@@H](C)[C@H](O[C@H]3C[C@@](C)(OC)[C@@H](O)[C@H](C)O3)[C@@H](C)C(=O)O[C@H](CC)[C@@](C)(O)[C@H](O)[C@@H](C)C(=O)[C@H](C)C[C@@]2(C)O)O[C@H](C)C[C@@H]1N(C)C [Eryped]	1.42 ± 0.092	1.102 ± 0.006	1.46 ± 0.19	1.15 ± 0.027	1.231 ± 0.0047	1.27 ± 0.25		1.05 ± 0.3	0.91 ± 0.18	0.593 ± 0.049	0.538 ± 0.12	0.833 ± 0.14	1.26 ± 0.087	0.957 ± 0.18	0.881 ± 0.12	0.96 ± 0.2	0.735 ± 0.075	0.513 ± 0.16
